This is an account of results in paper PMC3989599.

Amino acid sequences for entries named in this document (tags omitted). A change or cut given only in a name is not applied to a line headed by its entry.
UniProt Q9W0R0: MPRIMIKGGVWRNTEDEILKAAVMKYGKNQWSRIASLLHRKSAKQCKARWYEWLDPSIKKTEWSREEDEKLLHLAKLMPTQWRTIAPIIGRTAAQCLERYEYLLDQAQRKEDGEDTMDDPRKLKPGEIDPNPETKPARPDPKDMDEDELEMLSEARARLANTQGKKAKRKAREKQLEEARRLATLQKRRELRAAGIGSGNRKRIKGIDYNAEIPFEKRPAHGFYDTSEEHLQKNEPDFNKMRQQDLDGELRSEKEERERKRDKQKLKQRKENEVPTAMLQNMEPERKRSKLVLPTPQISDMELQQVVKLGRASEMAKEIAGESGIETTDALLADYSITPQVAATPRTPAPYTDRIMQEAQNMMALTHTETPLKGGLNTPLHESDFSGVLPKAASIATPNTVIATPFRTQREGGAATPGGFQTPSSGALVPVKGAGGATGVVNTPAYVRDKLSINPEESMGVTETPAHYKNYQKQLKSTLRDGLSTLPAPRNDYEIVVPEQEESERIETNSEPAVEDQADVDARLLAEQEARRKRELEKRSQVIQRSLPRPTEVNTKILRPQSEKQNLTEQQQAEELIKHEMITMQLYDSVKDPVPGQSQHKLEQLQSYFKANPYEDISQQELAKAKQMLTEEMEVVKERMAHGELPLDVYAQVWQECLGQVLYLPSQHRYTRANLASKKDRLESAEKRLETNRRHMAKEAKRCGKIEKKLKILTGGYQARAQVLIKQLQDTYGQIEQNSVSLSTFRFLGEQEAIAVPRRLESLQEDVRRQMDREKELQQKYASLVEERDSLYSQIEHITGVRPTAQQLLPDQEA

These are yes or no findings as the source states them, for the method shown. In cells and extracts the contact can be indirect. Binding calls can cover weak binding; strength is not graded here.

The experiment has as its target T1, Fandango (CG6197) (Drosophila melanogaster (endogenous in embryos)) (UniProt A1Z9G2).
T1 sequence: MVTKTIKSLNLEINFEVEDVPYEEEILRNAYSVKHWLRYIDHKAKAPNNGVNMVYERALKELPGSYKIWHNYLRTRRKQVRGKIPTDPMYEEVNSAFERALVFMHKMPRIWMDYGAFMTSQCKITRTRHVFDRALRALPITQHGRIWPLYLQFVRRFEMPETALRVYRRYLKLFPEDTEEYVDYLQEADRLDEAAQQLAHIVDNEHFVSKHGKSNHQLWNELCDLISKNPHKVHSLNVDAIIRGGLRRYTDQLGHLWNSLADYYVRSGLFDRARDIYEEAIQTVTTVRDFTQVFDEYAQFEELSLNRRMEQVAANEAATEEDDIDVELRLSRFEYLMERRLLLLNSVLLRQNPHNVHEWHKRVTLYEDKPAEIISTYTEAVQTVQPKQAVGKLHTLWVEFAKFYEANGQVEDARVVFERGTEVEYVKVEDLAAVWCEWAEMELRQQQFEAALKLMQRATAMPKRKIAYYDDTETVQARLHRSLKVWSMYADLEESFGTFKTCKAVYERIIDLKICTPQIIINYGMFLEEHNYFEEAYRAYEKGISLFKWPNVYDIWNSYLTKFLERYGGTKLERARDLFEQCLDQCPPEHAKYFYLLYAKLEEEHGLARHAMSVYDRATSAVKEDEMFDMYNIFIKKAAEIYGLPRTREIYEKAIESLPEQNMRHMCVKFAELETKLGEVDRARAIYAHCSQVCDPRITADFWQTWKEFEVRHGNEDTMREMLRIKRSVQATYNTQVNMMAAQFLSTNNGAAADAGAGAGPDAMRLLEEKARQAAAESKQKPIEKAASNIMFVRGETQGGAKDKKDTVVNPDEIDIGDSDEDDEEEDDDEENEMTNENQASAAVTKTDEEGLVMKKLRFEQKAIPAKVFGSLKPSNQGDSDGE
Nature of the experiment: co-IP; nuclear protein extracts of 0-3 hr wild-type (Oregon-R) embryos; 1 mg extract with rabbit anti-Prp19 (pre-immune serum as control) in HNEB2 buffer (100 mM NaCl, 2,5 mM MgCl2, 10 mM Tris-HCl pH 7,5, 0,5% Triton X-100), 1 hr at 4°C; Dynabeads Protein G; Western blot.

For the substance “CDC5L (CG6905, cdc5-like) (from UniProt Q9W0R0)”, the binding result is given as “binds”. With ISY1 (CG9667), the binding result was “binds”.
